# Reference: PubChem BioAssay AID504648 (National Center for Advancing Translational Sciences (NCATS), 2011)
# In all, about 390,000 compounds went through this assay and about 610 (0.16%) were called active. The inconclusive results got no clear call from the source; some entries with a clear call stand among them for comparison. Calls follow the shape of the dose curve; as a rule, active = well fitted inhibition curve with a large enough effect; inconclusive = small, poorly fitted or top-dose-only effect, or effect the other way, or another doubt; inactive = no such curve, though single readings can be large or run the other way. A potency beside an inconclusive call is a rough fit, not a confirmed value.
# Assay: Nrf2 qHTS screen for inhibitors: counterscreen for cytotoxicity
# Settings: A549 ARE-Fluc cells, CellTiter-Fluor viability, 18-24 h; series mostly up to 46 µM
# In short: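 A549 ARE_Fluc cells in 5% FBS OPTI-MEM were exposed to compounds in concentration-response for 18-24 h at 37 deg C. Viability was read by CellTiter-Fluor fluorescence (Ex 405/Em 525) after 30 min, before the luciferase read.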
# Potency is read from the fitted curve at half-maximal effect.
row,SMILES,Potency
1,O=C(c1nc(-c2ccc(Cl)cc2)n2c1CCCCC2)N1CCN(c2ccc(F)cc2)CC1,"inconclusive: 18.4 µM [falling, partial curve, poor fit]"
2,O=[N+]([O-])c1cccc(S(=O)(=O)NCc2ccncc2)c1,"inconclusive: 16.4 µM [falling, partial curve, poor fit]"
3,O=C1NC(=S)N/C1=C/c1cccn1-c1ccc([N+](=O)[O-])cc1,"inconclusive: 10.3 µM [falling, partial curve]"
4,Cc1nc2cc(-c3cccc(F)c3)nn2c(C)c1CCC(=O)N1CCN(c2ccc(F)cc2)CC1,"inconclusive: 16.4 µM [falling, partial curve, poor fit]"
5,COC(=O)c1c(C)nc(C)c2c(=O)oc3ccccc3c12,inactive
6,O=C(NCCC1CCCCN1S(=O)(=O)c1cccs1)C(=O)Nc1ccc(F)cc1F (stereo unspecified),"inconclusive: 23.1 µM [falling, partial curve, poor fit]"
7,COc1ccc(N2CCN(C(=S)Nc3ccc(C)cc3)CC2)cc1,inactive
8,O=C(NCC(=O)N1CCN(c2ccccc2)CC1)c1ccc(Br)o1,"inconclusive: 5.8 µM [falling, single point]"
9,CCOC(=O)c1c(C)oc2c1c(C=NCCO)c(O)c1ccccc12,active: 23.1 µM
10,COc1ccc(Sc2nnc(Cc3ccccc3)c3ccccc23)cc1,"inconclusive: 29.1 µM [falling, single point]"
11,CCOc1ccc(-c2cc3c(=O)n(CC(=O)Nc4c(C)cccc4C)ccn3n2)cc1,inactive
12,Cc1ccc(-n2ncc(C(=O)NCc3cccs3)c2C2CCN(C(=O)OC(C)(C)C)CC2)cc1C,inactive
13,c1ccc(-[n+]2nc(Nc3cccc4ccccc34)sc2-c2c3ccccc3cc3ccccc23)cc1,"inconclusive: 14.6 µM [falling, single point]"
14,Nc1cc(C(=O)c2ccccc2)ccc1N1CCOCC1,"inconclusive: 13 µM [falling, partial curve, poor fit]"
15,CCC(=O)N1CCc2cc(S(=O)(=O)CCC(=O)N3CCN(c4cccc(C)c4)C(C)C3)ccc21 (stereo unspecified),inactive
16,Cc1nc(N2C(=O)C(=O)/C(=C(/O)c3ccccc3)C2c2ccco2)sc1C (stereo unspecified),"inconclusive: 14.6 µM [falling, partial curve]"
17,CCCCOc1ccc(C(=O)N2CCN(c3ncccn3)CC2)cc1,"inconclusive: 11.6 µM [activator, partial curve, poor fit]"
18,O=C(CCl)NN1C(=O)NC2(CCCCC2)C1=O,"inconclusive: 20.6 µM [falling, single point]"
19,COc1ccc(OC)c(CCNC(=O)CCn2c(=O)c3cccn3c3cccnc32)c1,inactive
20,CC(C)(C)C(=O)[C@H]1[C@H](c2ccccc2)[C@@]2(N=C(c3ccccc3)OC2=O)C2c3ccccc3C=NN21 (stereo partly specified),"inconclusive: 29.1 µM [falling, single point]"
21,Cc1cccc(N(CC(=O)NC(C)c2ccccc2)S(=O)(=O)c2ccccc2)c1C (stereo unspecified),"inconclusive: 23.1 µM [falling, single point]"
22,CCCN1C(=O)c2ccccc2NC1c1ccc(OC)c(COc2ccc([N+](=O)[O-])cc2)c1 (stereo unspecified),inactive

row,SMILES,Potency
1,O=[N+]([O-])c1cccc(COc2ccccc2CN2CCCC2)c1,inactive
2,COc1ccc(-c2cc(C(=O)N3CCN(c4ccccc4OC)CC3)c3cc(C(C)C)ccc3n2)cc1,inactive
3,CCOC(=O)Cn1c(=O)oc2cc(S(=O)(=O)NCc3ccc(F)cc3)ccc21,inactive
4,O=C1CC(c2ccccc2)Cc2[nH]c(=O)c(-c3nc(-c4cccc(Cl)c4)cs3)cc21 (stereo unspecified),inactive
5,Cc1ccccc1-n1nc(C)c2cc(C(=O)NCc3cccnc3)sc21,inactive
6,Cc1ccc(OCC(=O)N/N=C/c2ccco2)cc1,inactive
7,N=c1c(C(=O)NCC2CCCO2)cc2c(=O)n3ccccc3nc2n1Cc1cccnc1 (stereo unspecified),"inconclusive: 20.6 µM [activator, single point]"
8,Cn1nc(C(=O)NC2CCCN(Cc3ccccc3F)C2)c2ccccc2c1=O (stereo unspecified),inactive
9,Cc1ccc(S(=O)(=O)N2[C@@H](c3ccccc3F)C(C(=O)O)=CC[C@H]2c2ccc(C(C)C)cc2)cc1,"inconclusive: 23.1 µM [falling, partial curve, poor fit]"
10,CC1Cc2ccccc2N1C(=O)COC(=O)c1ccc(N(C)C)cc1 (stereo unspecified),inactive
11,Cc1ccc(-n2c(=O)c3c(C)c(C(=O)N(C)C)sc3n(Cc3ccccc3C)c2=O)cc1C,"inconclusive: 8.2 µM [falling, partial curve, poor fit]"
12,COc1ccc2c(CNC3CCC(C)CC3)c(C(=O)O)n(Cc3ccc(F)cc3)c2c1 (stereo unspecified),"inconclusive: 16.4 µM [falling, partial curve, poor fit]"
13,Cc1cccc(OCCNC(=O)c2cncc(Br)c2)c1,"inconclusive: 29.1 µM [activator, partial curve, poor fit]"
14,CCOC(=O)c1cccc(NC(=O)COc2ccc3c(C)cc(=O)oc3c2)c1,"inconclusive: 6.51 µM [falling, partial curve, poor fit]"
15,Cc1ccc(C2Nc3cccc4cccc(c34)N2)s1,"inconclusive: 14.6 µM [falling, single point]"
16,COc1cc2nc(NCCc3cccc(C)c3)n3nc(-c4ccccc4)nc3c2cc1OC,inactive
17,c1ccc2c(Cn3nnc4ccccc43)cccc2c1,"inconclusive: 6.51 µM [activator, single point]"
18,CCOC(=O)C1=NN(c2ccc([N+](=O)[O-])cc2)CC1C(=O)OC (stereo unspecified),"inconclusive: 18.4 µM [falling, single point]"
19,CCOc1ccc2c(ccc(/C=C/c3cc(C)c4cccnc4c3O)[n+]2C)c1,"inconclusive: 16.4 µM [falling, single point]"
20,COc1ccc(-c2cn3c(n2)sc2cc(C(=O)NCCc4ccccc4)ccc23)cc1,inactive
21,Cc1[nH]n(-c2ccccc2)c(=O)c1N=Nc1c(O)cc(S(=O)(=O)N(C)C)c2ccccc12,"inconclusive: 18.4 µM [falling, single point]"
22,Cc1ccnc(Sc2ccc([N+](=O)[O-])cc2[N+](=O)[O-])n1,"inconclusive: 4.11 µM [falling, partial curve, poor fit]"

row,SMILES,Potency
1,COc1ccc(-n2c(CCc3ccccc3)nnc2SCC(=O)NCc2ccccc2)cc1,inactive
2,Cc1cc(C)cc(NC(=O)NCc2noc3ccccc23)c1,inactive
3,Cc1nc2ccccc2c2oc(C(=O)Nc3ccc(C(C)C)cc3)cc12,"inconclusive: 18.4 µM [falling, single point]"
4,N=c1ccn(Cc2cccc(Cl)c2)cc1,"inconclusive: 1.46 µM [falling, full curve]"
5,C[C@]12c3[nH]c4ccc(Cl)cc4c3CCN1C(=O)[C@@H](CC(=O)NCC13CC4CC(CC(C4)C1)C3)C[C@@H]2C(=O)N1CCCCC1,"inconclusive: 29.1 µM [falling, single point]"
6,COc1ccc(-c2nn(-c3ccccc3)cc2/C=C2/SC(=S)N(CCC(=O)O)C2=O)c(C)c1,"inconclusive: 18.4 µM [falling, partial curve, poor fit]"
7,O=C(CCn1cnc2onc(-c3ccc(F)cc3)c2c1=O)Nc1cccc(C(F)(F)F)c1,"inconclusive: 29.1 µM [falling, partial curve, poor fit]"
8,O=C(O)c1ccc(NC(=O)c2ccc3c(c2)C(=O)N(CC2CCCO2)C3=O)cc1 (stereo unspecified),"inconclusive: 14.6 µM [falling, partial curve, poor fit]"
9,CCOc1ccc(NC(=O)c2ccc3c(=O)n4c(nc3c2)CCCCC4)cc1,inactive
10,CC(C)c1ccc(CNc2ccc([N+](=O)[O-])cn2)cc1,"inconclusive: 29.1 µM [falling, single point]"
11,Cc1ccc(C)c(N2CCN(CCCNC(=O)c3cnn(-c4cccc(Cl)c4)c3C3CCN(C(=O)OC(C)(C)C)CC3)CC2)c1,"inconclusive: 29.1 µM [falling, single point]"
12,COc1ccc(/C=C2\SC(=O)NC2=S)cc1OC,active: 11.6 µM
13,O=C(Nc1ccccc1)c1sccc1Oc1ccc([N+](=O)[O-])cc1F,"inconclusive: 32.6 µM [falling, partial curve, poor fit]"
14,Cc1ccc(-c2csc(N3CCC(NS(=O)(=O)c4ccc5c(c4)OCCO5)CC3)n2)cc1,"inconclusive: 18.4 µM [falling, partial curve]"
15,COc1ccccc1NC(=O)c1cc2c(-c3ccccc3)nn(-c3ccccc3)c2s1,inactive
16,CCOc1ccccc1NC(=O)Cn1c(=O)nc(-c2ccccc2F)c2cc(Cl)ccc21,"inconclusive: 29.1 µM [falling, single point]"
17,S=C(Nc1ccccc1)Nc1nc2ccccc2n1CCOc1ccccc1,"inconclusive: 20.6 µM [falling, single point]"
18,COc1ccccc1NC(=O)C(=O)NCc1ccncc1,"inconclusive: 6.51 µM [activator, partial curve, poor fit]"
19,CCCc1nc(SCC(=O)N2CCc3ccccc3C2)c2ccccc2n1,"inconclusive: 25.9 µM [falling, single point]"
20,CCOc1nc(CC(C)C)c2c(c1C#N)CC(C)(C)OC2,inactive
21,Cn1cc(SCC(=O)Nc2nccs2)c2ccccc21,"inconclusive: 2.06 µM [activator, full curve, poor fit]"
22,Cc1cc(C(=O)OCC(=O)NCc2ccco2)c(C)n1-c1ccc(F)cc1,"inconclusive: 6.51 µM [falling, partial curve, poor fit]"

# At a glance, 3 of the compounds above.
row,SMILES,Potency
16,Cc1nc(N2C(=O)C(=O)/C(=C(/O)c3ccccc3)C2c2ccco2)sc1C (stereo unspecified),"inconclusive: 14.6 µM [falling, partial curve]"
17,CCCCOc1ccc(C(=O)N2CCN(c3ncccn3)CC2)cc1,"inconclusive: 11.6 µM [activator, partial curve, poor fit]"
18,O=C(CCl)NN1C(=O)NC2(CCCCC2)C1=O,"inconclusive: 20.6 µM [falling, single point]"
